Experimental data: patent publication US7658943B2, “Oral pharmaceutical composition for soft capsules containing vinorelbine and method of treatment” (R.P. Scherer Technologies, LLC, priority 2002, dated 2010)
At least one read-out could not be matched to a standard name with certainty.

Test: Solubility by visually checking clearness of fill preparation
Assay type: physicochemical

For `CCC1=C[C@@H]2CN(C1)Cc1c([nH]c3ccccc13)[C@@](C(=O)OC)(c1cc3c(cc1OC)N(C)[C@H]1[C@@](O)(C(=O)OC)[C@H](OC(C)=O)[C@]4(CC)C=CCN5CC[C@]31[C@@H]54)C2` [Vinorelbine (powder), 3′,4′-didehydro-4′-deoxy-C′-norvincaleucoblastine], the Solubilization of vinorelbine (20 mg of vinorelbine in 6.20 mg of water and 10.30 mg of ethanol, before addition of polyethylene glycol) was “can be solubilized”, the Solubilization of vinorelbine (20 mg of vinorelbine in 10 mg of ethanol) was “viscous product” and the Solubilization of vinorelbine (20 mg of vinorelbine in 10 mg of water) was “not completely solubilized”.
